For the test, the target named is T1, hexokinase 2 (human (endogenous in Beas-2B)) (UniProt P52789).
T1 sequence: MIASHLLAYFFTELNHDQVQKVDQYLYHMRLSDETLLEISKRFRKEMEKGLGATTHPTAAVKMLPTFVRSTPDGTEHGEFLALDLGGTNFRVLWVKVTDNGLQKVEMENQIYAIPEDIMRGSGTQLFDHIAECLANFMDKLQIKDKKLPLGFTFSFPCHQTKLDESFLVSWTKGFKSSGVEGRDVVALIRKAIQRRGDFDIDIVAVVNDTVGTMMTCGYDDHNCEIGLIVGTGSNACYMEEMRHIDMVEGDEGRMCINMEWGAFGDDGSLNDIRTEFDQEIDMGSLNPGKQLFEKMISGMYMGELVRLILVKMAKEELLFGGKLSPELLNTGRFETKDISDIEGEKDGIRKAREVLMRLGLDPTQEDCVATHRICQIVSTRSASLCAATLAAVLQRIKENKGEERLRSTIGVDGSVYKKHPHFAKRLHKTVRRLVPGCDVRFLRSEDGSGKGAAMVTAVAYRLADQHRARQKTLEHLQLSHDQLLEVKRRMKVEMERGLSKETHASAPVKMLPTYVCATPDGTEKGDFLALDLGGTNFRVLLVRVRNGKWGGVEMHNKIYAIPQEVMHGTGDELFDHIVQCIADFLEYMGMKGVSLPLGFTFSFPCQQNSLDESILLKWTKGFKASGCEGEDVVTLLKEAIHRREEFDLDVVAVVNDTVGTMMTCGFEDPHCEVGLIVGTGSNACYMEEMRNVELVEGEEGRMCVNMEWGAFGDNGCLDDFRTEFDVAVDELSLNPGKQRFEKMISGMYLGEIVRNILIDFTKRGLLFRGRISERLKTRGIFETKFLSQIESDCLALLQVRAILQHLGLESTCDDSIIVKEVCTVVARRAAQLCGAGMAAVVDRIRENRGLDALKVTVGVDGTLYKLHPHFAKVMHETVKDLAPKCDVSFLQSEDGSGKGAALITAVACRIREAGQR
As to the kind of experiment: co-IP; Beas-2B cells exposed to IL-1β (20 ng/mL) for 48 h, NP-40 lysis buffer; pre-cleared lysate incubated overnight at 4 °C with anti-HK2 or anti-IgG, protein G magnetic beads; eluate analysed by western blotting.

The chains behind the UniProt entries cited, without tags or fusion partners. Residues count along the entry.
UniProt P30405, residues 30-207: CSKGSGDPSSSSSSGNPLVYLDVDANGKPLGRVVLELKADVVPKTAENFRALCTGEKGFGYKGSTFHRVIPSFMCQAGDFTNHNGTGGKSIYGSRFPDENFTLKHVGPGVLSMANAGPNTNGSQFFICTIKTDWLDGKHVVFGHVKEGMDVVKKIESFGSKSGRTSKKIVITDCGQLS

These are yes or no findings as the source states them, for the method shown. Binding seen in cells or lysates may run through a third protein. Some binding calls cover weakened binding; strength is not graded here.

This note sets out measurements from PMC12248590.

On to “peptidylprolyl isomerase F (from UniProt P30405 30-207) (enzyme)”, for which the binding entry is on record as “binds”.
